Assay results taken from article PMC11977356.
Results are given in words; binding and its absence hold for the method and conditions named. Binding seen in cells or lysates may run through a third protein. Some binding calls cover weakened binding; strength is not graded here.

Amino acid sequences for entries named in this document (tags omitted).
UniProt P46934: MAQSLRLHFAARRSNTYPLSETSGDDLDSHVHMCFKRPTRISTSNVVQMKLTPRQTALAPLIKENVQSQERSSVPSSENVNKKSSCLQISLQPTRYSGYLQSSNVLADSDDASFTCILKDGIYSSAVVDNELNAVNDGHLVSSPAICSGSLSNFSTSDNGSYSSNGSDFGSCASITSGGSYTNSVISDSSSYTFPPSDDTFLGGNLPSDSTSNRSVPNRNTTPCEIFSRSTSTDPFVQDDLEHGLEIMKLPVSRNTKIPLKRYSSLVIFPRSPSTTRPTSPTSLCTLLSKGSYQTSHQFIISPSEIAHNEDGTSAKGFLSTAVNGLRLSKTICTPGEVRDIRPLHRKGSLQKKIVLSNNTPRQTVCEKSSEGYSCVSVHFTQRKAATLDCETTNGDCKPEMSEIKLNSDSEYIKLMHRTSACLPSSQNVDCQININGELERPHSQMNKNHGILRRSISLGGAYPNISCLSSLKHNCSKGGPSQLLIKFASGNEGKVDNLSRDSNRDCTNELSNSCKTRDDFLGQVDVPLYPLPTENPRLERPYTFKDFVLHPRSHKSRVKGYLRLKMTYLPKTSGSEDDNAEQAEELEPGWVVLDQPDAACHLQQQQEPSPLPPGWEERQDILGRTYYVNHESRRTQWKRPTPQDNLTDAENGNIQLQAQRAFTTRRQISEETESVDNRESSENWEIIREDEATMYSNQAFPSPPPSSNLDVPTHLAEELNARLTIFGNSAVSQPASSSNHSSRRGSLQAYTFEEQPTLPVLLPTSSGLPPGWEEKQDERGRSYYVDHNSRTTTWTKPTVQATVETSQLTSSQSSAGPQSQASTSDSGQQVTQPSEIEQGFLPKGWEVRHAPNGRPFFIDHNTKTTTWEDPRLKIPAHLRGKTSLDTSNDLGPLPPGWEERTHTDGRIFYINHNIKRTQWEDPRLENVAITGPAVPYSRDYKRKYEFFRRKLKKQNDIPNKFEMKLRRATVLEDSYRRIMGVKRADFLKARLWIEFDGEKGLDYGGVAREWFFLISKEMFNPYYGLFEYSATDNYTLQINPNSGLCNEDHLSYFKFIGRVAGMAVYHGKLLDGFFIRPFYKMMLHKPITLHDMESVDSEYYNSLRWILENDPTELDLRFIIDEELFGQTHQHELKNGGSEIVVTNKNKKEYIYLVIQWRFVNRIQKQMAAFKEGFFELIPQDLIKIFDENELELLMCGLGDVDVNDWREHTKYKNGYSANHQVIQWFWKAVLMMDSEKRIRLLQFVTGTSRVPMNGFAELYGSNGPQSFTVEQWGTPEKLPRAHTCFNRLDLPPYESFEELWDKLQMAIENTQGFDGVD

Target: NEDD4 (human (endogenous in K562)) (UniProt P46934)
Assay: co-IP; endogenous co-IP from K562 and K562/DOX cell lysates with anti-NEDD4 antibody, Protein A/G magnetic beads at 25 °C for 1 h, low-pH elution, western blot

B1: NEDD4 binding protein 1 (protein, UniProt O75113 1-896)
chain: MAARAVLDEFTAPAEKAELLEQSRGRIEGLFGVSLAVLGALGAEEPLPARIWLQLCGAQEAVHSAKEYIKGICEPELEERECYPKDMHCIFVGAESLFLKSLIQDTCADLCILDIGLLGIRGSAEAVVMARSHIQQFVKLFENKENLPSSQKESEVKREFKQFVEAHADNYTMDLLILPTSLKKELLTLTQGEENLFETGDDEVIEMRDSQQTEFTQNAATGLNISRDETVLQEEARNKAGTPVSELTKQMDTVLSSSPDVLFDPINGLTPDEEALSNERICQKRRFSDSEERHTKKQFSLENVQEGEILHDAKTLAGNVIADLSDSSADSENLSPDIKETTEEMEYNILVNFFKTMGYSQEIVEKVIKVYGPSTEPLLLLEEIEKENKRFQEDREFSAGTVYPETNKTKNKGVYSSTNELTTDSTPKKTQAHTQQNMVEKFSQLPFKVEAKPCTSNCRINTFRTVPIEQKHEVWGSNQNYICNTDPETDGLSPSVASPSPKEVNFVSRGASSHQPRVPLFPENGLHQQPEPLLPNNMKSACEKRLGCCSSPHSKPNCSTLSPPMPLPQLLPSVTDARSAGPSDHIDSSVTGVQRFRDTLKIPYKLELKNEPGRTDLKHIVIDGSNVAITHGLKKFFSCRGIAIAVEYFWKLGNRNITVFVPQWRTRRDPNVTEQHFLTQLQELGILSLTPARMVFGERIASHDDRFLLHLADKTGGIIVTNDNFREFVNESVSWREIITKRLLQYTFVGDIFMVPDDPLGRSGPRLEEFLQKEVCLRDMQPLLSALPNVGMFDPSFRVPGTQAASTSHQPPTRIQGAPSSHWLPQQPHFPLLPALPSLQQNLPMPAQRSSAETNELREALLKIFPDSEQRLKIDQILVAHPYMKDLNALSAMVLD
B1 was tested, and the binding was “binds”.
